The assay has as its target Flag-tagged Mi-2 (Drosophila melanogaster) (UniProt O97159). Kind of assay: affinity purification with mass spectrometry; Flag-Mi-2 expressed in S2 cells, anti-Flag immunoprecipitation, washes with 500 mM NaCl, 0.5% Triton X-100, elution with Flag peptide, trypsin digestion, LC-MS/MS; Flag-GFP as control.

Protein sequences, listed by entry. Tags and fused reporters are not part of them.
UniProt O97159: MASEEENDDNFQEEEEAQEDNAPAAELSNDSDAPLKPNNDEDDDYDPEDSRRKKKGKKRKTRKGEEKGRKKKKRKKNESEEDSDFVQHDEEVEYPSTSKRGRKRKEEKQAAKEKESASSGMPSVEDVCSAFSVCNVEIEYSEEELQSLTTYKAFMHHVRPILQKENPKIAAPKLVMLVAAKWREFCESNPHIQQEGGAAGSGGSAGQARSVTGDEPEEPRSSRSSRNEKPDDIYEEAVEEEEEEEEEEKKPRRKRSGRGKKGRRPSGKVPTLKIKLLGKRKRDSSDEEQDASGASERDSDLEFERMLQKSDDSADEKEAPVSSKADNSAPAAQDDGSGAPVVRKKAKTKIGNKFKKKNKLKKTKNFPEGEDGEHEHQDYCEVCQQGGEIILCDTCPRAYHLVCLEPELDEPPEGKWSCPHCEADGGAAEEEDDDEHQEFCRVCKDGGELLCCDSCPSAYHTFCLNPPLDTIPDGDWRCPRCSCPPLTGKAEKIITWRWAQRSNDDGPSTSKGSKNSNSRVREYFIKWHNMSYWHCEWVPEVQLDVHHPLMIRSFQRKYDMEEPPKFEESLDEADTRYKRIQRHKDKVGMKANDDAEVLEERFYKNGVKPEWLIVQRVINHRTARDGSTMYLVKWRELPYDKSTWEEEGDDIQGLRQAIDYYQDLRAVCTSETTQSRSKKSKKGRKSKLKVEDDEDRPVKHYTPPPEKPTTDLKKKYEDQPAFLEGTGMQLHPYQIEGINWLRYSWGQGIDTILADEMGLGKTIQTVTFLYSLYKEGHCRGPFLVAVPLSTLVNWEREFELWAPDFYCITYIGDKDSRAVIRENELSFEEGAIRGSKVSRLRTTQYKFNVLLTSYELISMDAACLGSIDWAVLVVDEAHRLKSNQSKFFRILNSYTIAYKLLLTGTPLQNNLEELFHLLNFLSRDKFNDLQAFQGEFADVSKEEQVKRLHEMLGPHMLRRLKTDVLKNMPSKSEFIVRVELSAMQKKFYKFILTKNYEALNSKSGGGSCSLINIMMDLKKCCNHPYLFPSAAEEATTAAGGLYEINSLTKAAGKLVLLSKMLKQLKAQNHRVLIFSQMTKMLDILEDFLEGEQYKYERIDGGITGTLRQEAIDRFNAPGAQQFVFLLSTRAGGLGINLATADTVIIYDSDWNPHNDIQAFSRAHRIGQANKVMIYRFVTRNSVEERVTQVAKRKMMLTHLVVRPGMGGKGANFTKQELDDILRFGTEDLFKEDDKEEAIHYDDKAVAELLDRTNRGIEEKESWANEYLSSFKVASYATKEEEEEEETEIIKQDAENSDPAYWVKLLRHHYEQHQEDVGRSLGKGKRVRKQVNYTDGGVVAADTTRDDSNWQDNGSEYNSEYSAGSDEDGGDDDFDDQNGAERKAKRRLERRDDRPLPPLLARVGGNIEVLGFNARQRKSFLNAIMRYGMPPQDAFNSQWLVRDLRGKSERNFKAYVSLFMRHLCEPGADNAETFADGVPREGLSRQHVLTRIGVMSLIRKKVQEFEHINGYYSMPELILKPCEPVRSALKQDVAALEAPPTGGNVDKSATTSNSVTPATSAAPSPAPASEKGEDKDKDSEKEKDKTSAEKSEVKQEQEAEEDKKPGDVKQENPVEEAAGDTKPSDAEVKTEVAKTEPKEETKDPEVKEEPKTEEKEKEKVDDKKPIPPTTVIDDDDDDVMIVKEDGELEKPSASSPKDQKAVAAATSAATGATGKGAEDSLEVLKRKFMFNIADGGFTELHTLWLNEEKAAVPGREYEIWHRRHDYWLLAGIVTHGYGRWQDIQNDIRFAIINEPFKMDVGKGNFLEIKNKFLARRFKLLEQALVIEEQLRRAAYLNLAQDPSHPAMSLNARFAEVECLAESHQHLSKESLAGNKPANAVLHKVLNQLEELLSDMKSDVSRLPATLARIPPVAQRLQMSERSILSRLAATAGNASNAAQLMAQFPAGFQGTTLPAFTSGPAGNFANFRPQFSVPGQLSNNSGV
UniProt Q95V55: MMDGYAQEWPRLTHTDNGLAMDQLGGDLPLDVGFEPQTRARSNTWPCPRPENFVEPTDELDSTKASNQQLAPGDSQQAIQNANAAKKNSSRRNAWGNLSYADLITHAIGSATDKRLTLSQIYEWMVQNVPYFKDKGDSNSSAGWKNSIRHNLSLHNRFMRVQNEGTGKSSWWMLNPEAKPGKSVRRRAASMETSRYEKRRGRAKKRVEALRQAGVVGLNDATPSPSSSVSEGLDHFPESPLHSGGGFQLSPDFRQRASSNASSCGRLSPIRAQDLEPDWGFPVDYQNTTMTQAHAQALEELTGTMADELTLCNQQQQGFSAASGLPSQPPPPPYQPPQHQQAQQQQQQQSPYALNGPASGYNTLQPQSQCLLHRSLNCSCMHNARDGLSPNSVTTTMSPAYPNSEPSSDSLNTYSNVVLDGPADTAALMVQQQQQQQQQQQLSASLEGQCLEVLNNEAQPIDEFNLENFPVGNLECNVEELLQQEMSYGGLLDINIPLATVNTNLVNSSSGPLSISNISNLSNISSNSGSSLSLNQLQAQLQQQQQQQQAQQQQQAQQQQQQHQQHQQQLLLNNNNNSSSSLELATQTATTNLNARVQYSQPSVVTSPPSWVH

These are yes or no findings as the source states them, for the method shown. In cells and extracts the contact can be indirect. A yes stands for co-enrichment or nearness to the bait. Other partners may have been found.

Turning to “Forkhead box O (Foxo), found in the Mi-2 interactome of S2 cells (from UniProt Q95V55 1-613)”, the binding entry is listed as “binds”.

For the origin of these results see article PMC12515809.
